Patent US20100173991A1, “METHOD FOR THE SYNTHESIS OF A-RING AROMATIZED ACETYL MINOCYCLINES” (priority 2007, published 2010)
Where a name gives a salt, the structure may show the parent alone. At least one compound was matched to its structure with a doubt left.

System: E. coli C 600 hfc strain
Test: Antibiotic effect in the agar diffusion test
Type: cell-based
Settings: filter paper sheets soaked with DMSO solutions 100 μM to 2.5 mM; LB agar, 37° C., 24 hours
Method: The test of the antibiotic effect of the pentaacetyl cyclin obtained in the inventive method was performed by using an E. coli strain (Embodiment 4). […] The liquid culture (cultivated in LB-Lennox-L-Broth-Base for 24 hours) of an E. coli suspension (150 μl) of the C 600 hfc strain was evenly distributed on LB agar (Lennox-L-Agar, Gibco) by means of a sterile Drigalski spatula. Afterwards, sterile filter paper sheets (diameter 5.3 mm) that have been soaked with sterile DMSO solutions and different concentrations (100 μM to 2.5 mM) of minocycline hydrochloride or pentaacetyl cyclin (Formula II) were placed on the breeding ground. After the incubation of the agars at 37° C. for 24 hours, the antibiotic activity of the substances was assessed on the basis of the diameters of the inhibiting areolas that become visible due to the missing opacification by bacteria.

Compound: CN(C)c1ccc(O)c2c1C[C@H]1C[C@H]3[C@H](N(C)C)C(O)=C(C(N)=O)C(=O)[C@@]3(O)C(O)=C1C2=O [minocycline hydrochloride, Minocycline hydrochloride]
- growth inhibition of E. coli (inhibiting areolas): inhibits the growth of E. coli
